Test results reported in article PMC5703968.
No constants are given. Whether binding was seen depends on the method and setting. Binding seen in cells or lysates may run through a third protein. Some results given as binding are weak or reduced against the parent protein; the word gives no strength.

Chains of the proteins cited; added tags and fusions are not shown.
UniProt Q4QRB4: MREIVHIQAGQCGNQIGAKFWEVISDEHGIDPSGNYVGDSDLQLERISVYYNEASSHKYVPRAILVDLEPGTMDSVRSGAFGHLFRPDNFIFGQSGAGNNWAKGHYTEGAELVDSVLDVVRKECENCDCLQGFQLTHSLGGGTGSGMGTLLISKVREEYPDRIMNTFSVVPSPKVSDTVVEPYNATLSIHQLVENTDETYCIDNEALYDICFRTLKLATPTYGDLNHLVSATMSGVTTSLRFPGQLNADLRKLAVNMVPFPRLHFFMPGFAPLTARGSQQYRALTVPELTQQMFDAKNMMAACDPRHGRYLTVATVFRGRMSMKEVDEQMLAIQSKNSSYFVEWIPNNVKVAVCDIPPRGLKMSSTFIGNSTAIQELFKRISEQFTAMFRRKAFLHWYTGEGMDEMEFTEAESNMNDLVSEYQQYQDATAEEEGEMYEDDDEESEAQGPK
UniProt Q63544: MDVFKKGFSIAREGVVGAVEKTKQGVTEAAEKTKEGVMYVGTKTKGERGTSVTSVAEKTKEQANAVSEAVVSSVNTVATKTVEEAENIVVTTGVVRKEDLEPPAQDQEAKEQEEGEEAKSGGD

Biological target: βIII-tubulin (endogenous, rat femoral nerve) (rat (endogenous in femoral nerve)) (UniProt Q4QRB4)
Assay: co-IP; biotinylated anti-βIII-tubulin antibody on streptavidin agarose; lysate of ligated rat femoral nerve; co-precipitates examined by Western blotting with anti-αSyn and anti-γSyn

binding: binds
Substance: γ-synuclein (endogenous, rat femoral nerve) (from UniProt Q63544 1-123)
